According to the supplement of paper PMC10849652:
This is one part of the list.

Sequences of proteins named here, by UniProt entry; tags and fusion partners are left off. A change or cut given only in a name is not applied to a line headed by its entry.
UniProt Q9H813: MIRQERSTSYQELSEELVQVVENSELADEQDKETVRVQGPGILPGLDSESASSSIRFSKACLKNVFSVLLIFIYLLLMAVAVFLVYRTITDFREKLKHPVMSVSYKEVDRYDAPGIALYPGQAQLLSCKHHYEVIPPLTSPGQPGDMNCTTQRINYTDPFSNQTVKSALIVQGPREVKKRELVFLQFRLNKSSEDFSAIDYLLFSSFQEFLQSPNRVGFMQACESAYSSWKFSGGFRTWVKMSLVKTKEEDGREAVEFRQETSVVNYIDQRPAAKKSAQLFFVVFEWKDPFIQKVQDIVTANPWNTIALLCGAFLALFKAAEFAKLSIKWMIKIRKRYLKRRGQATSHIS
UniProt Q9NR12, whole entry, looked up: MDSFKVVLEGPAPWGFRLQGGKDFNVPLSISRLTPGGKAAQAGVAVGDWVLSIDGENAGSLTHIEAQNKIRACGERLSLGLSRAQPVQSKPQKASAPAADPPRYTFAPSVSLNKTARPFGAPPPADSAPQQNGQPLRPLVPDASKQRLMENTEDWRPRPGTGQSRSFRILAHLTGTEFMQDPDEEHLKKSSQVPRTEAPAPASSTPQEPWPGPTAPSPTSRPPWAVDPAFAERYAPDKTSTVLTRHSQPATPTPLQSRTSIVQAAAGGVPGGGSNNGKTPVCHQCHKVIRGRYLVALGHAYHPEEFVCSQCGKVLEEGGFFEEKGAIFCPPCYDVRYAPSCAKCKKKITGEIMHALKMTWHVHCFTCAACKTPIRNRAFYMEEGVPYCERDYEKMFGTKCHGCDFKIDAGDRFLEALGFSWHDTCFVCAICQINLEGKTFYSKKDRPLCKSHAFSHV
UniProt Q9H300: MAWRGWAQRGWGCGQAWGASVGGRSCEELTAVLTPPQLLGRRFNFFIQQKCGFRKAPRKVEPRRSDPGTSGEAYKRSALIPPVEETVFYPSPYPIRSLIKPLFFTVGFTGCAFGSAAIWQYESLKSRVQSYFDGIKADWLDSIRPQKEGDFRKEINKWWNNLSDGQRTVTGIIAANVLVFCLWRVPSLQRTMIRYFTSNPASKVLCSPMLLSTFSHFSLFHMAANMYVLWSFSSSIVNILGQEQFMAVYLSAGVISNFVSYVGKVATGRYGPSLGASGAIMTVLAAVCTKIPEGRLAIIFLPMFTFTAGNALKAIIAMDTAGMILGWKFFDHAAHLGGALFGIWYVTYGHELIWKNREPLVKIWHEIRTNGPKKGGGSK
UniProt Q15004: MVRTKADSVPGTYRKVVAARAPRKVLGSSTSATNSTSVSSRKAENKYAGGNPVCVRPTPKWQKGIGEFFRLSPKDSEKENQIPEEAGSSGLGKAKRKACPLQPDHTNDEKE
UniProt Q16822, whole entry, looked up: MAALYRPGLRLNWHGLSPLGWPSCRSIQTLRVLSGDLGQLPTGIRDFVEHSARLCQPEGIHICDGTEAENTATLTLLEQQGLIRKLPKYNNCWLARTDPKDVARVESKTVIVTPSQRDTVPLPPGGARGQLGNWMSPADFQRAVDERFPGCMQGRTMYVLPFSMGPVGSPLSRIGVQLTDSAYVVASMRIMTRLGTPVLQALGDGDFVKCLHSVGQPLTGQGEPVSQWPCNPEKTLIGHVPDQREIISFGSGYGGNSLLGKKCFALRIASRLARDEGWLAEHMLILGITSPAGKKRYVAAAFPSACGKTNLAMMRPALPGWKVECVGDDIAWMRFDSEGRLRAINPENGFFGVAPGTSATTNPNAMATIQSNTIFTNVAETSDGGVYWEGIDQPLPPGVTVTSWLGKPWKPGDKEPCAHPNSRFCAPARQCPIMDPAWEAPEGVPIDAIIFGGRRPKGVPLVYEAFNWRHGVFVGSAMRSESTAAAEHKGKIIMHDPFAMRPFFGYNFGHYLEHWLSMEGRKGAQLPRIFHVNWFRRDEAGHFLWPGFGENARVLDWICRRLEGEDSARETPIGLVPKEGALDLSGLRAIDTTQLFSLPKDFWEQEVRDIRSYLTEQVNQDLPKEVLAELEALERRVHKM
UniProt Q8N165: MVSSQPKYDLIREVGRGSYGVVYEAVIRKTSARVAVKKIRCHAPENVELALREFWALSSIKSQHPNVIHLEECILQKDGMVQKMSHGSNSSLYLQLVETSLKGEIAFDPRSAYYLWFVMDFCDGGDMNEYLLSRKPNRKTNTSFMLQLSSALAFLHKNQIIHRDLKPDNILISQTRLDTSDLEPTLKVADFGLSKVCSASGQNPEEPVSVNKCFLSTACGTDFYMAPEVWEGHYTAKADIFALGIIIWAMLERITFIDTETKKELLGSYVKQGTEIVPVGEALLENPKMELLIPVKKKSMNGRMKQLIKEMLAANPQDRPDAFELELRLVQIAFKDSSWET
UniProt Q9NUG6, whole entry, looked up: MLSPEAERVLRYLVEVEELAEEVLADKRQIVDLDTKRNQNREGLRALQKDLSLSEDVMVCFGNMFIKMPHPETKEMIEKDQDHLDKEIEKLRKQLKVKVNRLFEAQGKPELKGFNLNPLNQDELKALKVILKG
UniProt Q15366, whole entry, looked up: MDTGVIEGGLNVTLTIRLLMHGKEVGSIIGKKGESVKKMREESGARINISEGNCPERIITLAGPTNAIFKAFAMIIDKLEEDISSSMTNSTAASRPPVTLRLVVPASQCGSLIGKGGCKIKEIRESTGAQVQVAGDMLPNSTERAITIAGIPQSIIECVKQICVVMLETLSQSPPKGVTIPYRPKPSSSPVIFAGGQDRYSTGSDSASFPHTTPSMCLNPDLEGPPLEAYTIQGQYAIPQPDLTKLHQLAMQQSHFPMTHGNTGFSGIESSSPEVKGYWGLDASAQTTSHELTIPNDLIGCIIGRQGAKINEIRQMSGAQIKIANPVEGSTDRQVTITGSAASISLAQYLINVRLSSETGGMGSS
UniProt Q9UNF0: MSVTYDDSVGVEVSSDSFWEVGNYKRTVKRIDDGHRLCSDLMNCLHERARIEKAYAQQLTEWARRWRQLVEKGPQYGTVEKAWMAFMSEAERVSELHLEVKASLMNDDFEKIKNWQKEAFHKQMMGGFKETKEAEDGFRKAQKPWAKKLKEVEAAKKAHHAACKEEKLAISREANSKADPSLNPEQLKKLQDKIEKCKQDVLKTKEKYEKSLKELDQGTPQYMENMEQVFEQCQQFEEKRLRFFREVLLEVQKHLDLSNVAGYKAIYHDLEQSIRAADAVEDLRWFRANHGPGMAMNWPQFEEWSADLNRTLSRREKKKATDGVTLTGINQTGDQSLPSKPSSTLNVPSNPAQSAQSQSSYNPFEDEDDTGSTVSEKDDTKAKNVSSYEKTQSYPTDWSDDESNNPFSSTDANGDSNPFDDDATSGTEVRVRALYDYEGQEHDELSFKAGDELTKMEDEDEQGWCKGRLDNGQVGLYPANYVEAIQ
UniProt Q53EL6: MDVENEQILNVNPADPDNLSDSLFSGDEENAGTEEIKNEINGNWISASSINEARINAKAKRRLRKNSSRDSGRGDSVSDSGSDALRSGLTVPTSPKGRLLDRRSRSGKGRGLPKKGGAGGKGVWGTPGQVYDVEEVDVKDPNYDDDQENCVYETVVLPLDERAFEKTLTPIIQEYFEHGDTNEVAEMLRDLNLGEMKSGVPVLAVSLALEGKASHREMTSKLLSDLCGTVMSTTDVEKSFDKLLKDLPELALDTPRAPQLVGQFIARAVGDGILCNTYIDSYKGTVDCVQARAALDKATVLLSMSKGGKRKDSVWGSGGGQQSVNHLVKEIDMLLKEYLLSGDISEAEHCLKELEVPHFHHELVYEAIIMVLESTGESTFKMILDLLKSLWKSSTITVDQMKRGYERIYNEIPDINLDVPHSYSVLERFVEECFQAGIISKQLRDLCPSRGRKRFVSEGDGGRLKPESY
UniProt Q96RD7, whole entry, looked up: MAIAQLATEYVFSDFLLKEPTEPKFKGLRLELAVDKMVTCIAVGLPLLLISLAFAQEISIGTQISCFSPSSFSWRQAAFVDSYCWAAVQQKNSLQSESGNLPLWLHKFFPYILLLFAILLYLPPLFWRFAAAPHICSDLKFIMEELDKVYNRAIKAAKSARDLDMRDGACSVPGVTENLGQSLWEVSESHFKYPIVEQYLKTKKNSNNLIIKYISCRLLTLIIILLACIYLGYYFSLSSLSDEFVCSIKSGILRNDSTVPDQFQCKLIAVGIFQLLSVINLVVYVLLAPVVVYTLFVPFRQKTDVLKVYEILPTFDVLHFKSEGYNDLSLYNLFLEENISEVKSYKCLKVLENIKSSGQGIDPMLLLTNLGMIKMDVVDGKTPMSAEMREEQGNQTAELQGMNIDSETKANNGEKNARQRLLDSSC
UniProt Q16342: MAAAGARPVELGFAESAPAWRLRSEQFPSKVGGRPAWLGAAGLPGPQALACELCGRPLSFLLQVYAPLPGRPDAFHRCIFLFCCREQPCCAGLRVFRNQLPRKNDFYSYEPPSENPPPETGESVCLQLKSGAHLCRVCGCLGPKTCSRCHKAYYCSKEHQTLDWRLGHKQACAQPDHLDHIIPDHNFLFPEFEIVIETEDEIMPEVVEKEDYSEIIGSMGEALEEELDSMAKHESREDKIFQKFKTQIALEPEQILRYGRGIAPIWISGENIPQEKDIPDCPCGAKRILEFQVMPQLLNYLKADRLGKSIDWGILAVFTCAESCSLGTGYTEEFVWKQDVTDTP
UniProt O60683: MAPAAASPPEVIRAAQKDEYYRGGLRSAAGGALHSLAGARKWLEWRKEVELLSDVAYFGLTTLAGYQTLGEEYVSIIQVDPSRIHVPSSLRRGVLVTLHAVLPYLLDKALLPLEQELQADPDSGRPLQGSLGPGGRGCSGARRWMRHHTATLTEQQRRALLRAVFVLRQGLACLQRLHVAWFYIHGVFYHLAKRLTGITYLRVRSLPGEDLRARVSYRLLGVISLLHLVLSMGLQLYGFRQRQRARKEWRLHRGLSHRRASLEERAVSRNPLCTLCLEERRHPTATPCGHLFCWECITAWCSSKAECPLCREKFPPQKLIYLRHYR
UniProt Q13371: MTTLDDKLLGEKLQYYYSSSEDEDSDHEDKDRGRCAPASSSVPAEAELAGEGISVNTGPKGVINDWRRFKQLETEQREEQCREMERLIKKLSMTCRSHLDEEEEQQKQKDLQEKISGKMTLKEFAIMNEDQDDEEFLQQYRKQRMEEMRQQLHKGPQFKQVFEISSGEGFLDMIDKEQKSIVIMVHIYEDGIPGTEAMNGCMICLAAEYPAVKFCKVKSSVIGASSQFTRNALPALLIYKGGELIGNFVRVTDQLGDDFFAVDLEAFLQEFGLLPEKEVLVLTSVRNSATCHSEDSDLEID
UniProt O15530: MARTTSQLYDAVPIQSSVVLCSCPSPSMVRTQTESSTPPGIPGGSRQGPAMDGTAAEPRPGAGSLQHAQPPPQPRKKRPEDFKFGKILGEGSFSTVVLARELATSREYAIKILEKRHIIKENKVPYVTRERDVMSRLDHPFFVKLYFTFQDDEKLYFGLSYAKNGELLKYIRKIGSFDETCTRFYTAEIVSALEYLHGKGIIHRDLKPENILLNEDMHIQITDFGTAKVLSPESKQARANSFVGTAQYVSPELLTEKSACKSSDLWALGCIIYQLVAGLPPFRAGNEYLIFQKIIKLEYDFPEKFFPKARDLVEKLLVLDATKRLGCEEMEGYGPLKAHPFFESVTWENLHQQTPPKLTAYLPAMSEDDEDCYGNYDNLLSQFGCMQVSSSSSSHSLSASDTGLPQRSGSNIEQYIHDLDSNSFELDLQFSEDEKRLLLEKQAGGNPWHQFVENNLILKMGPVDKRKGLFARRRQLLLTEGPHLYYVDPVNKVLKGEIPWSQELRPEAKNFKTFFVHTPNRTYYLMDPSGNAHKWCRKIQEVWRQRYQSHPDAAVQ
UniProt Q13153, whole entry, looked up: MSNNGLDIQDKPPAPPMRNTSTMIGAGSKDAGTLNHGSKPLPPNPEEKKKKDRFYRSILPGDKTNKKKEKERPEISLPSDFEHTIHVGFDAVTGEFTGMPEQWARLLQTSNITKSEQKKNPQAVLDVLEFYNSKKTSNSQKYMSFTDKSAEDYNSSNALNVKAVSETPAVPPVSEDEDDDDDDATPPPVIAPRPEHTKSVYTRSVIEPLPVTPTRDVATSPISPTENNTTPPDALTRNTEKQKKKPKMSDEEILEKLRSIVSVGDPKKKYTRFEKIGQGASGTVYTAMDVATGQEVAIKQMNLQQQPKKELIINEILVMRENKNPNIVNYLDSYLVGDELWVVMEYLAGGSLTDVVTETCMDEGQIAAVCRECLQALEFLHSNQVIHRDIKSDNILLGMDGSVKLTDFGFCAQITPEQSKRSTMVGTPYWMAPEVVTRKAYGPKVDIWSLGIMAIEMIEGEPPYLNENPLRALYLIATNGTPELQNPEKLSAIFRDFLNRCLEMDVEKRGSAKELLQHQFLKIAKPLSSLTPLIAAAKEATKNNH

Assays:
Test in all cases: log2 fold change, soluble protein after heating vs DMSO (PISA); higher = thermal stabilisation; K562 cells, 10 uM, 30 min; active = over 0.2 and 3.5 SD of the protein, either way, in both replicates (recomputed)
saracatinib = compound: CN1CCN(CCOc2cc(OC3CCOCC3)c3c(Nc4c(Cl)ccc5c4OCO5)ncnc3c2)CC1 [saracatinib]
Outline: (§1)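 For each measurement, 10 μM compound was applied for 30 min to K562 cells at 2×10^6 cells/mL. Aliquots were heated for 3 min across 48°C-58°C, pooled, and extracted in PBS with 0.5% NP-40 at 4°C; the supernatant after 21,000xg for 90 min was soluble protein. This was quantified by TMTpro 16plex LC-MS/MS with channel sums equalised, and thermal stability was reported relative to control samples from duplicates, on a log2 fold-change scale.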

sotrastaurin = compound: CN1CCN(c2nc(C3=C(c4c[nH]c5ccccc45)C(=O)NC3=O)c3ccccc3n2)CC1 [sotrastaurin]
Outline: as §1

alvocidib = compound: CN1CC[C@H](c2c(O)cc(O)c3c(=O)cc(-c4ccccc4Cl)oc23)[C@H](O)C1 [alvocidib]
Outline: as §1

Tubastatin A = compound: CN1CCc2c(c3ccccc3n2Cc2ccc(C(=O)NO)cc2)C1 [Tubastatin A]
Outline: as §1

defactinib = compound: CNC(=O)c1ccc(Nc2ncc(C(F)(F)F)c(NCc3nccnc3N(C)S(C)(=O)=O)n2)cc1 [defactinib]
Outline: as §1

[1] = compound: CNc1nc(-c2ccc3c(N)n[nH]c3c2)cc(N2C[C@@H](C(=O)NC3CCCCC3)CC[C@H]2C)n1
Outline: as §1

[2] = compound: COC(=O)[C@H](CCSC)NC(=O)C1=C(C=C(C=C1)NC[C@H](CS)N)C2=CC=CC=C2
Outline: as §1

[3] = compound: COC1=CC=C(C=C1)CN2C=CC3=C2C=C(C=C3)C(=O)NO
Outline: as §1

filanesib = compound: CON(C)C(=O)N1N=C(c2cc(F)ccc2F)S[C@@]1(CCCN)c1ccccc1 [filanesib]
Outline: as §1

zotarolimus = compound: CO[C@H]1C[C@@H]2CC[C@@H](C)[C@@](O)(O2)C(=O)C(=O)N2CCCC[C@H]2C(=O)O[C@H]([C@H](C)C[C@@H]2CC[C@H](n3cnnn3)[C@H](OC)C2)CC(=O)[C@H](C)/C=C(\C)[C@@H](O)[C@@H](OC)C(=O)[C@H](C)C[C@H](C)/C=C/C=C/C=C/1C [zotarolimus]
Outline: as §1

idasanutlin = compound: COc1cc(C(=O)O)ccc1NC(=O)[C@@H]1N[C@@H](CC(C)(C)C)[C@](C#N)(c2ccc(Cl)cc2F)[C@H]1c1cccc(Cl)c1F [idasanutlin]
Outline: as §1

alisertib = compound: COc1cc(Nc2ncc3c(n2)-c2ccc(Cl)cc2C(c2c(F)cccc2OC)=NC3)ccc1C(=O)O [alisertib]
Outline: as §1

[4] = compound: COc1cc2nc(-c3cc(F)ccc3O)nc(N[C@@H]3CNC[C@H]3C(C)(C)O)c2cc1OC
Outline: as §1

gefitinib = compound: COc1cc2ncnc(Nc3ccc(F)c(Cl)c3)c2cc1OCCCN1CCOCC1 [gefitinib]
Outline: as §1

[5] = compound: COc1cccc2cc(-c3nc([C@H]4CC[C@H](C(=O)O)CC4)n4ncnc(N)c34)[nH]c12
Outline: as §1

lapatinib = compound: CS(=O)(=O)CCNCc1ccc(-c2ccc3ncnc(Nc4ccc(OCc5cccc(F)c5)c(Cl)c4)c3c2)o1 [lapatinib]
Outline: as §1

[6] = compound: CNC(=O)C1=CC=CC=C1NC2=NC(=NC=C2Cl)NC3=C(C=C(C=C3)N4CCOCC4)OC
Outline: as §1

rucaparib = compound: CNCc1ccc(-c2[nH]c3cc(F)cc4c3c2CCNC4=O)cc1 [rucaparib]
Outline: as §1

encorafenib = compound: COC(=O)N[C@@H](C)CNc1nccc(-c2cn(C(C)C)nc2-c2cc(Cl)cc(NS(C)(=O)=O)c2F)n1 [encorafenib]
Outline: as §1

pictilisib = compound: CS(=O)(=O)N1CCN(Cc2cc3nc(-c4cccc5[nH]ncc45)nc(N4CCOCC4)c3s2)CC1 [pictilisib]
Outline: as §1

Measured: log2 fold change

PACC1 (UniProt Q9H813)
inactive: saracatinib -0.002 | sotrastaurin 0.144 | alvocidib -0.09 | Tubastatin A -0.04 | defactinib -0.038 | [1] 0.1 | [2] -0.004 | [3] -0.04 | filanesib -0.089 | zotarolimus 0.043 | idasanutlin -0.105 | alisertib -0.015 | [4] 0.137 | gefitinib 0.024 | [5] 0.079 | lapatinib 0.029

PDLIM7 (UniProt Q9NR12)
inactive: saracatinib 0.002 | sotrastaurin 0.016 | Tubastatin A -0.022 | [6] -0.014 | defactinib -0.083 | rucaparib 0.002 | [1] -0.013 | encorafenib 0.021 | [2] -0.021 | [3] 0.055 | filanesib 0.014 | zotarolimus 0.014 | idasanutlin -0.042 | alisertib -0.06 | [4] 0.03 | gefitinib -0.104 | [5] 0.012 | lapatinib 0.012 | pictilisib -0.046

PARL (UniProt Q9H300)
inactive: saracatinib 0.056 | sotrastaurin 0.019 | Tubastatin A -0.053 | [6] 0.025 | defactinib -0.011 | rucaparib -0.005 | [1] -0.052 | encorafenib 0.029 | [2] 0.015 | [3] -0.061 | filanesib -0.091 | zotarolimus -0.034 | idasanutlin -0.068 | alisertib -0.016 | [4] -0.2 | gefitinib 0.038 | [5] 0.08 | lapatinib 0.04 | pictilisib 0.011

PCLAF (UniProt Q15004)
inactive: saracatinib 0.057 | sotrastaurin 0.057 | Tubastatin A 0.08 | [6] -0.094 | defactinib 0.076 | rucaparib -0.094 | [1] -0.161 | encorafenib -0.046 | [2] 0.093 | [3] -0.115 | filanesib 0.158 | zotarolimus -0.172 | idasanutlin 0.066 | alisertib -0.035 | [4] -0.018 | gefitinib -0.057 | [5] -0.162 | lapatinib 0.033 | pictilisib -0.015

2 records picked at random from those above:
PDLIM7 (UniProt Q9NR12)
inactive: saracatinib 0.002 | sotrastaurin 0.016 | Tubastatin A -0.022 | [6] -0.014 | defactinib -0.083 | rucaparib 0.002 | [1] -0.013 | encorafenib 0.021 | [2] -0.021 | [3] 0.055 | filanesib 0.014 | zotarolimus 0.014 | idasanutlin -0.042 | alisertib -0.06 | [4] 0.03 | gefitinib -0.104 | [5] 0.012 | lapatinib 0.012 | pictilisib -0.046

PACC1 (UniProt Q9H813)
inactive: saracatinib -0.002 | sotrastaurin 0.144 | alvocidib -0.09 | Tubastatin A -0.04 | defactinib -0.038 | [1] 0.1 | [2] -0.004 | [3] -0.04 | filanesib -0.089 | zotarolimus 0.043 | idasanutlin -0.105 | alisertib -0.015 | [4] 0.137 | gefitinib 0.024 | [5] 0.079 | lapatinib 0.029

Next records

PCK2 (UniProt Q16822)
inactive: saracatinib 0.021 | sotrastaurin -0.003 | Tubastatin A -0.139 | [6] -0.006 | defactinib -0.048 | rucaparib -0.009 | [1] 0.015 | encorafenib -0.007 | [2] 0.01 | filanesib -0.007 | zotarolimus 0.045 | idasanutlin -0.044 | alisertib -0.035 | [4] 0.024 | gefitinib -0.025 | [5] 0.027 | lapatinib -0.045 | pictilisib 0.011
active: [3] -0.339

PDIK1L (UniProt Q8N165)
inactive: saracatinib -0.062 | sotrastaurin 0.019 | Tubastatin A 0.063 | [6] 0.192 | defactinib 0.014 | rucaparib 0.111 | [1] -0.064 | encorafenib -0.022 | [2] -0.115 | [3] -0.014 | filanesib 0.112 | zotarolimus -0.059 | idasanutlin 0.001 | alisertib 0.099 | [4] -0.127 | gefitinib 0.012 | [5] 0.092 | lapatinib 0.086

PDRG1 (UniProt Q9NUG6)
inactive: saracatinib 0.043 | sotrastaurin -0.028 | alvocidib 0.019 | Tubastatin A 0.042 | [6] -0.061 | defactinib -0.032 | rucaparib 0.037 | [1] -0.009 | encorafenib -0.024 | [2] 0.039 | [3] -0.017 | filanesib -0.034 | zotarolimus 0.038 | idasanutlin -0.001 | alisertib -0.017 | [4] -0.001 | gefitinib 0 | [5] -0.009 | lapatinib -0.001 | pictilisib 0.045

PCBP2 (UniProt F8VRH0)
inactive: saracatinib 0.255 | sotrastaurin -0.319 | Tubastatin A 0.155 | [6] 0.105 | defactinib 0.009 | rucaparib 0.066 | [1] -0.014 | encorafenib 0.014 | [2] 0.066 | [3] 0.139 | filanesib 0.107 | zotarolimus 0.013 | idasanutlin 0.218 | alisertib 0.305 | [4] -0.34 | gefitinib 0.055 | [5] -0.21 | lapatinib 0.06 | pictilisib -0.231

PCBP2 isoform 3 (UniProt Q15366)
inactive: saracatinib -0.023 | sotrastaurin -0.084 | Tubastatin A 0.025 | [6] -0.032 | defactinib -0.187 | rucaparib 0.041 | [1] 0.013 | encorafenib 0.075 | [2] -0.058 | [3] 0.138 | filanesib -0.031 | zotarolimus 0.048 | idasanutlin -0.064 | alisertib 0.012 | [4] -0.092 | gefitinib 0.011 | [5] 0.002 | lapatinib 0.003 | pictilisib -0.013

PACSIN2 (UniProt Q9UNF0)
inactive: saracatinib -0.149 | sotrastaurin -0.155 | alvocidib -0.194 | Tubastatin A 0.066 | [6] -0.106 | defactinib -0.131 | rucaparib 0.058 | [1] 0.128 | encorafenib 0.056 | [2] -0.061 | [3] 0.021 | filanesib 0.004 | zotarolimus 0.051 | idasanutlin -0.037 | alisertib 0.057 | [4] 0.122 | gefitinib 0.079 | [5] -0.038 | lapatinib -0.046 | pictilisib -0.022

PDCD4 (UniProt Q53EL6)
inactive: saracatinib -0.008 | sotrastaurin 0.138 | Tubastatin A 0 | [6] 0.177 | defactinib -0.243 | rucaparib -0.113 | [1] 0.114 | encorafenib 0.073 | [2] -0.097 | [3] 0.055 | filanesib -0.153 | zotarolimus 0.251 | idasanutlin -0.161 | alisertib -0.025 | [4] 0.018 | gefitinib 0.057 | [5] 0.16 | lapatinib 0.032 | pictilisib 0.083

PANX1 (UniProt Q96RD7)
inactive: saracatinib -0.001 | sotrastaurin -0.01 | alvocidib -0.087 | Tubastatin A 0.038 | [6] -0.015 | defactinib -0.026 | rucaparib 0 | [1] -0.063 | encorafenib -0.01 | [2] 0.044 | [3] -0.047 | filanesib 0.007 | zotarolimus -0.011 | idasanutlin 0.001 | alisertib -0.095 | [4] 0.038 | gefitinib -0.021 | [5] 0.033 | lapatinib -0.021 | pictilisib 0.042

PDCD2 (UniProt Q16342)
inactive: saracatinib 0.052 | sotrastaurin -0.18 | alvocidib 0.016 | Tubastatin A 0.006 | rucaparib 0.078 | [1] 0.082 | encorafenib 0.067 | [3] -0.018 | filanesib 0.21 | zotarolimus 0.036 | alisertib 0.014 | [5] -0.178

PEX10 isoform 2 (UniProt O60683)
inactive: saracatinib -0.122 | sotrastaurin -0.013 | alvocidib 0.036 | Tubastatin A -0.271 | [1] 0.036 | filanesib 0.033 | zotarolimus -0.085 | idasanutlin 0.096 | alisertib -0.085 | [4] -0.068 | [5] -0.132 | lapatinib 0.061 | pictilisib -0.086

PDCL (UniProt Q13371)
inactive: saracatinib -0.069 | sotrastaurin 0.024 | alvocidib -0.141 | Tubastatin A 0.035 | [6] 0.038 | defactinib -0.062 | rucaparib -0.04 | [1] -0.064 | encorafenib -0.008 | [2] 0.074 | [3] 0.009 | filanesib -0.009 | zotarolimus -0.048 | idasanutlin -0.006 | alisertib -0.166 | [4] 0.038 | gefitinib -0.008 | [5] -0.022 | lapatinib 0.032 | pictilisib 0.016

PDPK1 (UniProt O15530)
inactive: saracatinib -0.008 | sotrastaurin 0.034 | Tubastatin A 0.023 | [6] -0.064 | defactinib -0.025 | rucaparib -0.056 | encorafenib 0.041 | [2] 0 | [3] -0.015 | filanesib -0.097 | zotarolimus 0.04 | idasanutlin -0.048 | alisertib -0.017 | [4] 0.011 | gefitinib -0.028 | [5] 0.01 | lapatinib -0.058 | pictilisib -0.179
active: [1] 0.385

PAK1 isoform 2 (UniProt Q13153)
inactive: saracatinib 0.074 | sotrastaurin -0.015 | Tubastatin A -0.098 | [6] 0.009 | defactinib 0.039 | rucaparib -0.082 | [1] -0.009 | encorafenib 0.033 | [2] 0.048 | [3] 0.178 | filanesib 0.04 | zotarolimus 0.003 | idasanutlin -0.155 | alisertib 0.086 | [4] -0.007 | gefitinib -0.025 | [5] -0.098 | lapatinib -0.015 | pictilisib 0.183
